From article PMC9979347 (ACS Omega, 2023)

What was measured:
Experiment in all cases: cells
hypoxic HCT116 cells = details: Homo sapiens, HCT-116, 48 h, read-out: Cytotoxicity IC50 (μM ± SD) HCT116
hypoxic LOX IMVI cells = details: Homo sapiens, 48 h, read-out: Cytotoxicity IC50 (μM ± SD) LOX IMVI
hypoxic U251 cells = details: Homo sapiens, U-251, 48 h, read-out: Cytotoxicity IC50 (μM ± SD) U251
HEK293T cells = details: Homo sapiens, HEK-293T, 48 h, read-out: IC50 (μM ± SD) normal HEK293T cells

CN[C@@H]1C[C@H]2O[C@@](C)([C@@H]1OC)n1c3ccccc3c3c4c(c5c6ccccc6n2c5c31)C(=O)NC4 [staurosporine, reference compound]
IC50 (hypoxic HCT116 cells): 5.72 ± 0.33 µM
IC50 (hypoxic LOX IMVI cells): 13.7 ± 0.65 µM
IC50 (hypoxic U251 cells): 11.1 ± 0.51 µM
IC50 (HEK293T cells): 17.8 ± 0.91 µM
